For at least one entry, the source does not settle the construct or the ends of the probe. Protein sequences can lack the tags named with them.
Molecular target: T1, GlyR3 (Clostridium thermocellum) (UniProt Q9AL35)
T1 sequence (looked up, limits assumed): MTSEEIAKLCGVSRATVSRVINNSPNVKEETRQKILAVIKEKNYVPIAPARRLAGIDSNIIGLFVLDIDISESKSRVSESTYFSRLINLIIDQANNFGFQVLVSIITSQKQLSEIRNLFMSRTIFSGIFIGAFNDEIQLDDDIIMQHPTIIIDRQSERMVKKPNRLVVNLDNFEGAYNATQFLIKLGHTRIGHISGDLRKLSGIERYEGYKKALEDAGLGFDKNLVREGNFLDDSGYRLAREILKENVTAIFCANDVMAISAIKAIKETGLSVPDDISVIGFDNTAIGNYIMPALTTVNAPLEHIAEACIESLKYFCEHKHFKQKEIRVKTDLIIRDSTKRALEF
Assay: EMSA
Settings: LightShift Chemiluminescent EMSA kit, TBE gel, 0.2 ng biotin-DNA (0.156-0.204 nM), GlyR3 150 ng (387 nM) unless titrated, binding buffer salt, recombinant protein, protein details: expressed from pTXB1 (IMPACT intein system, NEB), label: 5'-biotin on forward primer, probe letters rebuilt from the primers and the genome

CCGAATAAAAACTGGACAGAGAAGAAGAAAACGTGATATAATTAAATTAGAATGAACGCGCGTACATTATTGAATAATCCAGTGTTAAATGGTTTCAGTTTACGATTTCAAATGTTTATATCCAATTTACATTTAAAAACATACAAAACATCAAAAGTATTTAATACCAATATTTAAAACACAATATTTCAGGAGGA (double strand) [celC EMSA fragment]
binding signal (387 nM GlyR3, 50 mM laminaribiose): 82 % shifted | binding signal (387 nM GlyR3, 100 mM laminaribiose): 67 % shifted
